Screen size: about 1,400 compounds; about 940 (67%) were called active. The set was probably picked from earlier hits. The inconclusive results got no clear call from the source; some entries with a clear call stand among them for comparison. Calls come from the whole dose curve. A potency beside an inconclusive call is a rough fit, not a confirmed value.
Biological target: Atrial natriuretic peptide receptor 2 (Homo sapiens) (UniProt P20594)
Assay: Natriuretic polypeptide receptor (hNpr2) antagonism - Subtype selectivity assay; note: nearly all actives have a fitted effect of over 70% in size
Conditions: HEK293 hNpr2 GloSensor cGMP luminescence, CNP-stimulated; series mostly up to 57.6 µM
Protocol: F. Fan, B. F. Binkowski, B. L. Butler, P. F. Stecha, M. K. Lewis, K. V. Wood, Novel genetically encoded biosensors using firefly luciferase. ACS Chem Biol 3, 346-351 (2008).
PROTOCOL TABLE (as described by Inglese J, Shamu CE and Guy RK. 2007) SEQUENCE No. (e.g., 1, 2, 3, etc.); PARAMETER (e.g., Cells, Incubation, Reagent, etc.); VALUE and DESCRIPTION. 1. Cells. Seed 1500 HEK293 cGMP-sensor cells expressing hNpr2 per well in 4uL into Greiner 1536-well white/solid bottom high base, TC plates. 2. Incubation. Incubate plated cells at 37C in 5% CO2, 95% RH overnight. 3. Reagent. Add 1uL per well GloSensor reagent from Promega (2% final concentration) or CO2 independent media vehicle control to respective columns of Greiner 1536-well plates. 4. Incubation. Incubate plated cells at ambient temperature for 2 h., protect from light. 5. Compounds. Library compounds and DMSO vehicle control added at 23nL per well, transferred by Pin Tool. 6. Incubation. Incubate plated cells for 30 min. at ambient temperature, protect from light. 7. Detector. GloSensor baseline pre-read luminescence measured using CCD-based camera (Viewlux). 8. Compound. Add 1uL of hNppC peptide to 1 nM final concentration to stimulate hNpr2 or CO2 independent media as vehicle control. 9. Incubation. Incubate treated cells at ambient temperature for 20 min., protect from light. 10. Detector. GloSensor post-hNppC luminescence measured using CCD-based camera (Viewlux). NOTES (numbers refer to Sequence numbers above) 1. HEK293 cells expressing hNpr2 and GIP/pGS-40F were grown to 85-95% confluence (48-72 h) in T175 culture flasks (CO2 independent media supplemented with 10% FBS, 1% Pen/Strep antibiotics, and 1 ug/mL puromycin). Trypsinize and harvest cells from T175 culture flasks and filter through 40 um cell strainer. Cells counted with Invitrogen Countess (30,000,000 - 50,000,000 cells/flask). Cells diluted to a final concentration of 375 cells/uL in CO2 independent media and a Millipore multidrop used to dispense 1500 cells per well (4uL/well) into 13 1536-well Greiner White/Solid bottom, high base tissue-culture treated (TC) plates and one Aurora 1536-well Black/Clear bottom, low base, TC plate (for visual inspection of cell health throughout the duration of the assay). 2. Cells incubated for 24 h. at 37C in 95% RH incubator with metal lid having gas-exchange holes. 3. Prepare GloSensor Reagent (Promega): Reconstitute GloSensor luciferase substrate by adding 8.2mL Hepes buffer to 250mg substrate, mix well, protect from light and stored at -80C. Prepare a fresh 12% GloSensor solution in CO2 independent supplemented plating media (see above). Mix well and store at ambient temperature, protected from light. 1uL 12% GloSensor Luciferase Reagent added (2% final concentration) to respective columns of 13 x 1536-well Greiner plate with BioRaptr, 1uL CO2 independent plating media added to respective columns as vehicle control with BioRaptr. 4. Cells incubated for 2 h. at ambient temperature, protected from light with metal lid having gas-exchange holes. 5. 23nL of library compounds or DMSO vehicle control transferred to 13 Greiner white/solid bottom high base, TC plates in 11 interplate 1:3 titrations (see Yasgar, A. et al. 2008) with Pintool. 6. Cells incubated for 30-50 min. at ambient temperature protected from light with metal lid having gas-exchange holes. 7. Read cellular baseline GloSensor luminescence in presence of test library compounds on the ViewLux [Exposure = 10 s.; Gain = High; Speed = Slow; and Binning = 2X.] 8. hNppC peptide agonist solution prepared at 1 mM (in H2O) stock concentration. From this a working dilution was prepared at 6 nM in CO2 Independent media. 1uL of 6 nM hNppC agonist (1 nM final concentration) or CO2 Independent media vehicle control dispensed into respective columns of 13 x Greiner 1536-well white/solid bottom, tissue culture plates with BioRaptr. 9. Cells incubated for 20 min. at ambient temperature, protected from light with metal lid having gas-exchange holes. 10. […]
Potency is the fitted concentration of half-maximal effect.

Protein sequences, listed by entry. Tags and fused reporters are not part of them. Lines headed by an entry give the natural chain unless they say otherwise; changes in a name come on top.
UniProt P20594: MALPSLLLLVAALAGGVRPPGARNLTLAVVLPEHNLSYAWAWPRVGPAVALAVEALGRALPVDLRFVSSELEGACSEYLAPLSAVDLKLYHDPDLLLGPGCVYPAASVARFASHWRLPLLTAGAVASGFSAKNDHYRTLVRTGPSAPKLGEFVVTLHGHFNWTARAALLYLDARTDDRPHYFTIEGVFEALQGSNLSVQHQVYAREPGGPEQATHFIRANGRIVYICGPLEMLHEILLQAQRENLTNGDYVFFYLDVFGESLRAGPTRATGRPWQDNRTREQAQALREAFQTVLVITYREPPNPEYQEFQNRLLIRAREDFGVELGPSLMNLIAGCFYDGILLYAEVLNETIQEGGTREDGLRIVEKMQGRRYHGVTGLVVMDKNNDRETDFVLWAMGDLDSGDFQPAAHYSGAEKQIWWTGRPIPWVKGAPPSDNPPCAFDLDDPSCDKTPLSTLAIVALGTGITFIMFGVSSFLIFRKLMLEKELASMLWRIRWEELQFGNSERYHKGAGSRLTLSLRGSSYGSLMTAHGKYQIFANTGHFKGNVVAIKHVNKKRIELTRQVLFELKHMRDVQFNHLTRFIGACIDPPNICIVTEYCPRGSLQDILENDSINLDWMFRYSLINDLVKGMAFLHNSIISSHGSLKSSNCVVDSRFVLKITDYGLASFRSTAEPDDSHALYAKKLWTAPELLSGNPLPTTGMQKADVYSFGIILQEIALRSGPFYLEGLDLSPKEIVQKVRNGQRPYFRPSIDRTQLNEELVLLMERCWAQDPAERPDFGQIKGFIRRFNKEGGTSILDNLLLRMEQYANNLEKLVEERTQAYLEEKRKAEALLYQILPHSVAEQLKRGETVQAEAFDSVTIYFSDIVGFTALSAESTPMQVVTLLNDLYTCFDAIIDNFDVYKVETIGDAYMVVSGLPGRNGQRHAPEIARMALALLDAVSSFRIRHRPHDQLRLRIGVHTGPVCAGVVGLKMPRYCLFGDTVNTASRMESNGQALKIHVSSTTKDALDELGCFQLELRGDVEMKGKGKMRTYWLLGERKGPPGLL

SMILES | Potency
O=C(NCc1cccnc1)c1cnc2n[nH]c(-c3ccccc3)c2n1 | active: 12.5 µM
COc1ccccc1C(=O)N1CC(Oc2ccc(-c3nc(-c4ccccc4)no3)cc2)C1 | active: 24.3 µM
O=C(Nc1nccs1)[C@@H]1C[C@@H](c2ccc(F)cc2)N(CCOc2ccccc2)C1 | inconclusive: 39.6 µM [inhibitor, partial curve]
CCc1cc(=O)n(CC(=O)N2CCN(c3ccccc3OC)CC2)c(-c2ccccc2)n1 | inactive
CN(C)c1cccc(C(=O)N2CCN(C(=O)c3nnn4c3COC(c3ccc(Cl)cc3)C4)CC2)c1 (configuration not stated) | active: 24.3 µM
CC(C)(C)C(=O)NC[C@H]1O[C@H](Cc2cc(-c3ccc(F)cc3)on2)CC[C@@H]1O | inconclusive: 44.4 µM [inhibitor, single point]
COc1ccc(CNC(=O)c2ccc3c(c2)N(C(=O)c2ccc(F)cc2)CC3)cc1OC | active: 3.85 µM
O=C(Nc1ccccc1)N1CCn2c(nn(-c3ccc(C(F)(F)F)cc3)c2=O)C1 | inconclusive: 34.3 µM [inhibitor, single point]
COCc1nc(-c2ccc(OC3CN(C(=O)NCc4ccc(OC)cc4)C3)cc2)no1 | inconclusive: 24.3 µM [inhibitor, partial curve]
COc1ccc([C@@H]2CN(c3nnnn3-c3ccccc3)C[C@H]2NC(C)=O)cc1 | inconclusive: 13.7 µM [inhibitor, partial curve]
Fc1ccc(CN2CCOC[C@H]2c2ncc(-c3ccc(F)cc3F)[nH]2)cc1 | inconclusive: 28 µM [inhibitor, partial curve]
Cc1oc(-c2ccccc2)nc1CN1CCCC(C(=O)NCCc2noc(-c3ccccc3)n2)C1 (configuration not stated) | inconclusive: 34.3 µM [inhibitor, single point]
CC(C)c1cc(C(=O)NC2CCN(c3ncccc3C#N)CC2)n(C)n1 | active: 12.2 µM
COc1ccc(CN2C[C@H]3CN(Cc4ccc([N+](=O)[O-])cc4)CCN3C2=O)cc1 | active: 17.7 µM
O=C1c2c(nc(CNCc3cccc(Cl)c3)n2Cc2ccccc2)NCCN1CCOc1ccccc1 | inconclusive: 34.3 µM [inhibitor, single point]
O=C(COc1ccc(F)cc1)N1CCC(Oc2ccc(-c3noc(C4CC4)n3)cc2)C1 (configuration not stated) | inconclusive: 27.3 µM [inhibitor, partial curve]
O=C(c1cccc2[nH]ccc12)N1CCCC(n2cc(-c3nc(C4CC4)no3)nn2)C1 (configuration not stated) | inconclusive: 30.6 µM [inhibitor, single point]
Cc1cc(C(=O)N2CCC3(CC2)CC(N(Cc2ccc(F)cc2)C2CC2)CCO3)n(C)n1 (configuration not stated) | inconclusive: 21.7 µM [inhibitor, partial curve]
O=C(Nc1ccc(Cl)cc1)N1Cc2[nH]cnc2C[C@H]1c1nc(-c2ccccc2)no1 | inconclusive: 55.9 µM [inhibitor, single point]
CC(=O)N1CCC(Cc2ccc(C(=O)NC3CCN(Cc4ccccc4)CC3)cc2)CC1 | inconclusive: 19.3 µM [inhibitor, partial curve]
CCOc1ccccc1C(=O)N1CCc2[nH]nc(C(=O)NCCCc3ccccc3)c2C1 | inconclusive: 19.3 µM [inhibitor, partial curve]

Looked up by structure from the entries so far (two):
SMILES | Potency
Cc1cc(C(=O)N2CCC3(CC2)CC(N(Cc2ccc(F)cc2)C2CC2)CCO3)n(C)n1 (configuration not stated) | inconclusive: 21.7 µM [inhibitor, partial curve]
COc1ccc(CN2C[C@H]3CN(Cc4ccc([N+](=O)[O-])cc4)CCN3C2=O)cc1 | active: 17.7 µM

(continued)

SMILES | Potency
Cc1noc(-c2ccc(OC3CN(C(=O)NCc4ccc(F)cc4)C3)cc2)n1 | inconclusive: 27.3 µM [inhibitor, single point]
O=C(Cc1cccc(F)c1)N1CCC2(CC1)NC(=O)N(Cc1ccccc1Cl)C2=O | inactive
COc1ccc(CNC[C@H]2Cn3c(-c4ccc(Cl)cc4)cnc3CO2)cc1 | active: 35.3 µM
O=C(CC1CCCCC1)N1CCC(Cc2nc(-c3ccccc3)no2)CC1 | active: 15.3 µM
Cc1ccc(C)c(CN2C(=O)NC3(CCN(C(=O)Cc4cccc(F)c4)CC3)C2=O)c1 | inconclusive: 21.7 µM [inhibitor, partial curve]
COC(=O)C1=C(C)N=C2SC=C(CC(=O)N3CCCCC3)N2C1c1ccc(Cl)cc1 (configuration not stated) | inconclusive: 19.3 µM [inhibitor, partial curve]
Cc1cc(Cl)ccc1-c1ccc(CNC2CN(C(=O)OC(C)(C)C)C2)cc1 | active: 21.7 µM
CC(C)c1noc(CC2CCN(C(=O)c3ccc(F)cc3)CC2)n1 | inconclusive: 43.2 µM [inhibitor, single point]
CCc1noc(CC2CCOC3(CCN(S(=O)(=O)c4ccc(F)c(F)c4)CC3)C2)n1 (configuration not stated) | inconclusive: 21.7 µM [inhibitor, partial curve]
COc1ccc(-n2nc(C)c([C@@H]3C=C[C@@H](NS(=O)(=O)c4cccs4)C3)c2C)cc1 | inconclusive: 35.3 µM [inhibitor, partial curve]
O=C(NC1CCCCCCC1)c1nnn2c1COC(c1ccc(F)cc1)C2 (configuration not stated) | inconclusive: 27.3 µM [inhibitor, partial curve]
CN(C(=O)C1(c2ccc(Cl)cc2)CCOCC1)C1CCc2ccccc21 (configuration not stated) | active: 9.68 µM
CNC(=O)c1cc(-c2ccccc2C)cc2c1OCCN2Cc1cccnc1 | inconclusive: 31.4 µM [inhibitor, single point]
CCOc1ccccc1C(=O)N1CCC(n2cc(-c3nc(-c4ccccc4)no3)nn2)CC1 | inconclusive: 24.3 µM [inhibitor, partial curve]
CC(C)(C)c1noc(-c2nnn3c2COC(c2ccc(Cl)cc2)C3)n1 (configuration not stated) | inconclusive: 13.7 µM [inhibitor, partial curve]
Cc1cc(C(=O)NC(C)c2cnc(N3CCCCCCC3)nc2C)n[nH]1 (configuration not stated) | active: 24.3 µM
Cc1ccc(S(=O)(=O)N2CCC(n3cnnc3-c3ccccc3)CC2)c(C)c1 | inconclusive: 19.3 µM [inhibitor, partial curve]
Cc1ccc(C2(C(=O)NC(C)c3cnc(-c4ccncc4)nc3C)CC2)cc1 (configuration not stated) | inconclusive: 19.3 µM [inhibitor, partial curve]
Cn1nccc1CN1CCn2c(nn(-c3ccc(C(F)(F)F)cc3)c2=O)C1 | inconclusive: 38.5 µM [inhibitor, single point]
O=C(CN1C(=O)NC(c2ccc(Cl)cc2)C2=C1COC2=O)Nc1ccc(Br)cc1F (configuration not stated) | inconclusive: 24.3 µM [inhibitor, partial curve]
COc1ccc2nc(C[C@@H]3C[C@@H](C(C)C)[C@H](CNCc4ccccc4OC)C=C3C)[nH]c2c1 | inconclusive: 21.7 µM [inhibitor, partial curve]

Grouped by structure: the compounds so far containing sulfur
SMILES | Potency
O=C(Nc1nccs1)[C@@H]1C[C@@H](c2ccc(F)cc2)N(CCOc2ccccc2)C1 | inconclusive: 39.6 µM [inhibitor, partial curve]
COC(=O)C1=C(C)N=C2SC=C(CC(=O)N3CCCCC3)N2C1c1ccc(Cl)cc1 (configuration not stated) | inconclusive: 19.3 µM [inhibitor, partial curve]
CCc1noc(CC2CCOC3(CCN(S(=O)(=O)c4ccc(F)c(F)c4)CC3)C2)n1 (configuration not stated) | inconclusive: 21.7 µM [inhibitor, partial curve]
COc1ccc(-n2nc(C)c([C@@H]3C=C[C@@H](NS(=O)(=O)c4cccs4)C3)c2C)cc1 | inconclusive: 35.3 µM [inhibitor, partial curve]
Cc1ccc(S(=O)(=O)N2CCC(n3cnnc3-c3ccccc3)CC2)c(C)c1 | inconclusive: 19.3 µM [inhibitor, partial curve]

Additional records.

SMILES | Potency
Clc1cccc(CN2CC[C@H](c3nc4ccccc4[nH]3)C2)c1 | inconclusive: 39.6 µM [inhibitor, partial curve]
CC1=C(C(=O)OC(C)C)C(c2ccc(Cl)cc2)N2C(CC(=O)N3CCCC3)=CSC2=N1 (configuration not stated) | inconclusive: 21.7 µM [inhibitor, partial curve, poor fit]
Cc1nn2c(c1-c1ccnn1C(C)C)N(CC1CCOCC1)CCC2 | inconclusive: 7.03 µM [inhibitor, full curve, poor fit]
CCN(CC)C(=O)N1CC(Oc2ccc(-c3noc(COC)n3)cc2)C1 | active: 8.62 µM
O=C(Nc1cccc(C(F)(F)F)c1)c1nc2c(o1)CCN(Cc1ccccc1F)CC2 | inconclusive: 44.4 µM [inhibitor, single point]
CC(C)C(=O)N1CCC2(CC1)CC(N(Cc1ccc(F)cc1)C1CC1)CCO2 (configuration not stated) | inactive
Cc1cccc(NC(=O)Cn2c(N3CCc4ccccc4C3)nc(C)cc2=O)c1 | inconclusive: 21.7 µM [inhibitor, partial curve, poor fit]
OC1CC(c2cc(NCCOCc3ccc(Cl)cc3)ncn2)C1 (configuration not stated) | inconclusive: 24.3 µM [inhibitor, partial curve]
c1ccc(Nc2cc3c(cn2)CN(Cc2c[nH]c4ccccc24)CCN3)cc1 | active: 6.27 µM
COc1cccc(CNC(=O)C2CCN(c3cc(C(F)(F)F)ncn3)CC2)c1 | inconclusive: 19.3 µM [inhibitor, partial curve]
COc1ccc(C2Cn3nnc(-c4noc(C5CCCCC5)n4)c3CO2)cc1 (configuration not stated) | inconclusive: 15.3 µM [inhibitor, partial curve]
Oc1cccc(-c2cc(C[C@@H]3CC[C@H](O)[C@@H](CNC4CCC4)O3)no2)c1 | inactive
CCOc1ccccc1N1CCN(C(=O)CCn2ccn3nc4c(c3c2=O)CCCC4)CC1 | inconclusive: 17.2 µM [inhibitor, partial curve]
CCCc1ccc(S(=O)(=O)N(C)CC2CCOCC2)cc1 | inconclusive: 21.7 µM [inhibitor, partial curve]
CN(C)c1ccc(C(=O)NCC2CCN(c3cc(-c4ccc(Cl)cc4)[nH]n3)CC2)cc1 | inconclusive: 27.3 µM [inhibitor, single point]
O=C(CCc1nc2ccccc2s1)N1CCCC(c2nc(C3CCOCC3)no2)C1 (configuration not stated) | inactive
CCN(CC)C(=O)N1CC(Oc2ccc(-c3nc(C)no3)cc2)C1 | inconclusive: 24.3 µM [inhibitor, partial curve]
CCOc1ccccc1C(=O)NC1CCN(c2cc(C(F)(F)F)nc(C)n2)CC1 | inconclusive: 24.3 µM [inhibitor, partial curve]
CN(Cc1cccnc1)c1ccc2ncc(Nc3cc(F)cc(N4CCOCC4)c3)n2n1 | inconclusive: 35.3 µM [inhibitor, partial curve]
O=C(NC1CCCCC1)N1CCC(c2noc(-c3ccccc3)n2)C1 (configuration not stated) | inconclusive: 30.6 µM [inhibitor, partial curve]

Reference: PubChem BioAssay AID1347046 (National Center for Advancing Translational Sciences (NCATS), 2019)
